# Test results: publication PMC10837013
# The chains behind the UniProt entries cited, without tags or fusion partners.
# UniProt R4SEZ2, entry or part of it: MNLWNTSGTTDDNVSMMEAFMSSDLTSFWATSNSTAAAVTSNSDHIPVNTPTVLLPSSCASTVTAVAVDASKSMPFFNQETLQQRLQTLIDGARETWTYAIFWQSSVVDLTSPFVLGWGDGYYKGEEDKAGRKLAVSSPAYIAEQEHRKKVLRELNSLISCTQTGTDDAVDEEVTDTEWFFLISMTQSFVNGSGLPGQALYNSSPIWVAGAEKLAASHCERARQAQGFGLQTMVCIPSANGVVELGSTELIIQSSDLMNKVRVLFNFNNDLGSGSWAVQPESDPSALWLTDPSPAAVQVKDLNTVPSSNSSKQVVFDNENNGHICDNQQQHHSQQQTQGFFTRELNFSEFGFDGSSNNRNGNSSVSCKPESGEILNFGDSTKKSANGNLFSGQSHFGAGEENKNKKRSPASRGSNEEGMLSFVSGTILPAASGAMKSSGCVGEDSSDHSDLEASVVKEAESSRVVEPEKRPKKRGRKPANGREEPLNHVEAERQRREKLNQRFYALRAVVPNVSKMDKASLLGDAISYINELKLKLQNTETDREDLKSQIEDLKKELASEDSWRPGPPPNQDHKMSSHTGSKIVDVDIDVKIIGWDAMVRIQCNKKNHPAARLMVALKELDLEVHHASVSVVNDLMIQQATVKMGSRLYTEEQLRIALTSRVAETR
# UniProt R4S7B4, entry or part of it: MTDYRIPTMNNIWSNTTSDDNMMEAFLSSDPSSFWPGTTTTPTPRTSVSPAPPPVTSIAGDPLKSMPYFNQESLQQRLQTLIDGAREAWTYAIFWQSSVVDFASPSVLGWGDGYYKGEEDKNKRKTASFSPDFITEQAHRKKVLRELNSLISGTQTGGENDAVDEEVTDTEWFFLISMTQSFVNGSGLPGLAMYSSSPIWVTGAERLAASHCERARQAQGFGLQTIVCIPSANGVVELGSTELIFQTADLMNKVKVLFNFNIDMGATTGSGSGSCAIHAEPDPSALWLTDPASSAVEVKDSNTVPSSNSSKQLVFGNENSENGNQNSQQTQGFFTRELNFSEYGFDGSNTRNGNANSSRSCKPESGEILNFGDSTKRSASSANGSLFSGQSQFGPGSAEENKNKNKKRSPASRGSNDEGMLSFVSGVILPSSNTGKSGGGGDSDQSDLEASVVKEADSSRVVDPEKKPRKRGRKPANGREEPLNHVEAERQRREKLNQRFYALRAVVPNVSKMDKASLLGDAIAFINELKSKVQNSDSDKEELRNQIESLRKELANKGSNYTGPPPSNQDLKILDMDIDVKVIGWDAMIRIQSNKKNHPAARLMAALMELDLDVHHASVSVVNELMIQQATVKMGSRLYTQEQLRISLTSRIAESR
# Columns and labels:
# Assay in all cases: EMSA
# [1] = molecular target: T1, NaWRKY70 (Nicotiana attenuata) (UniProt A0A1J6IGI0); conditions: Chemiluminescence EMSA kit (Beyotime), manufacturer's protocol, pH and temperature not stated, recombinant protein, protein details: GST (pGEX-4T-1), label: biotin
# T1 sequence (looked up, limits assumed): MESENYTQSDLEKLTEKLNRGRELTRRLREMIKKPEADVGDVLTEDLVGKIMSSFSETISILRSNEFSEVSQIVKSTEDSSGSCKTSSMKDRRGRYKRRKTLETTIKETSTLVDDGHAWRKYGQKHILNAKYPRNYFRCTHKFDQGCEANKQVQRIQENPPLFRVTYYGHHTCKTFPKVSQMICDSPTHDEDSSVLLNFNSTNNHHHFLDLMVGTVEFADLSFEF
# [2] = molecular target: NaMYC2b (Nicotiana attenuata) (UniProt R4SEZ2); conditions: Chemiluminescence EMSA kit (Beyotime), manufacturer's protocol; pH and temperature not stated; recombinant protein; residues 1-666; protein details: GST (pGEX-4T-1); label: biotin
# [3] = molecular target: NaMYC2a (Nicotiana attenuata) (UniProt R4S7B4); conditions: Chemiluminescence EMSA kit (Beyotime), manufacturer's protocol; pH and temperature not stated; recombinant protein; residues 1-656; protein details: GST (pGEX-4T-1); label: biotin
Sequence,binding result [1],binding result [2],binding result [3],also measured
ACGTATATATGGTCACAGAAATTTAA (double strand) [NaF6'H1 Probe3],no binding,–,–,–
AGGCTGACAACATATGAATAACGTCA (double strand) [NaMYC-NaWRKY70-Probe2],–,no binding,no binding,–
GGTCTCTTTAGGTCAACCAACTATTC (double strand) [NaF6'H1 Probe1],–,–,–,"binding result ([1]; attenuated by 50x, abolished by 200x unlabeled probe): binds"
GTTTCATGGCATGACAATTGCCTATA (double strand) [NaF6'H1 Probe5],no binding,–,–,–
TTAATCCCAACAAGTGGGGTATGGGG (double strand) [NaMYC-NaWRKY70-Probe1],–,no binding,no binding,–
TTACAAATTGCATGTGAAATTCTGTG (double strand) [NaMYC-NaWRKY70-Probe3],–,no binding,no binding,–
TTTCAAGGCAGTGACTTGCAACTATA (double strand) [NaF6'H1 Probe4],no binding,–,–,–
TTTTGCACTCAGTCAGGCTAAAATCG (double strand) [NaF6'H1 Probe2],no binding,–,–,–

# For at least one entry, the source does not settle the construct or the ends of the probe. A negative result means that nothing was seen under these conditions. For some assays here: Tags and fusion partners may be left off the protein sequences shown.
